Measurements taken from PubChem BioAssay AID1671190 (National Center for Advancing Translational Sciences (NCATS), 2021).
About 6,100 (1.1%) of roughly 580,000 compounds were called active. The inconclusive results got no clear call from the source; some entries with a clear call stand among them for comparison. The call rests on the fitted dose curve; in most records, active means well fitted inhibition curve with a large enough effect; inconclusive means small, poorly fitted or top-dose-only effect, or another doubt; inactive means no such curve, though single readings can be large or run the other way. Potencies of inconclusive entries are doubtful fits and often do not repeat.

By UniProt entry, the sequences of proteins in these tests, tags left out.
UniProt P18054, whole entry, looked up: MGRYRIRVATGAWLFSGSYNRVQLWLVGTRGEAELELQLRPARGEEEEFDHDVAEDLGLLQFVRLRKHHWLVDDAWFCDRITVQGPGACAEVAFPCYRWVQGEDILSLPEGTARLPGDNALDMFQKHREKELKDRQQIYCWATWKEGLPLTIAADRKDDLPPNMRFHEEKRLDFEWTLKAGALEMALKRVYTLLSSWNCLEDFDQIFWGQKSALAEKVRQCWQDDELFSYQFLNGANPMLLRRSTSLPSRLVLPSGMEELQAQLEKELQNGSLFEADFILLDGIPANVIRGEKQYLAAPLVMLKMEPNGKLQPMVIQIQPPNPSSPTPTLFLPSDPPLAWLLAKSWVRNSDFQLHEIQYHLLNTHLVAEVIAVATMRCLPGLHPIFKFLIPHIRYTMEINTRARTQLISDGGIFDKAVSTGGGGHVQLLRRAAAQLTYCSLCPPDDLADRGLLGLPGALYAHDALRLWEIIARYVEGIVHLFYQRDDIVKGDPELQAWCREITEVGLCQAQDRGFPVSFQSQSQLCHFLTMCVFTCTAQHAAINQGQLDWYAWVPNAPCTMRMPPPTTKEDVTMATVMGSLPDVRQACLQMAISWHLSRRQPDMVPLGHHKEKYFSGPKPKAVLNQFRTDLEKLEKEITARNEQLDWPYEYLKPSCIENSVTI

target: Polyunsaturated fatty acid lipoxygenase ALOX12 (Homo sapiens) (UniProt P18054); test: Primary qHTS assay for inhibitors of human arachidonate 12S-lipoxygenase (ALOX12): Round 2; settings: purified 12hLO, xylenol orange hydroperoxide absorbance; activity change, negative = inhibition: at 108 µM (top of the series) unless noted
Procedure, shortened: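 Purified human 12hLO (150 nM final) in 25 mM Hepes, 0.01% Triton X-100, pH 7.0 was preincubated 15 min at room temperature with compound. Then 40 uM arachidonic acid was added, 30 min. Hydroperoxide was read by Fe-XO absorbance ratio 573/405 nm.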
On the % scale 0 is the no-effect control and ±100 the full control effect; potency means the concentration at half of the fitted maximal effect.

| Compound | activity change, negative = inhibition | Potency |
| --- | --- | --- |
| CCc1nn2c(=O)cc(CN(CC)C3CCCCC3)nc2s1 | inactive: 0.196% | – |
| Cc1ccc(SCC(=O)NC(C)(C#N)C2CC2)c(C)c1 (stereo not drawn) | – | active: 35.5 µM |
| CC(=O)Nc1ccc2c(c1)C(=O)N(c1cccc3ccccc13)C2=O | – | inconclusive: 39.8 µM [inhibitor, partial curve, poor fit] |
| CCOC(=O)N1CCc2c(sc(NCc3ccc(N(C)C)cc3)c2C(=O)Nc2ccccc2OCC)C1 | – | inconclusive: 50.1 µM [inhibitor, partial curve, poor fit] |
| O=C(c1cc2cc(Cl)ccc2[nH]1)N1C[C@@H](CO)[C@H](c2ccccn2)C1 | – | inconclusive: 28.2 µM [inhibitor, full curve] |
| NC(=O)Cn1c(=O)n(CCc2ccccc2)c(=O)c2c3c(sc21)CCCC3 | inactive: -2.98% | – |
| CCOC(=O)/C(C(C)=O)=C1\OC(=O)c2ccccc21 | – | inconclusive: 158 µM [inhibitor, partial curve, poor fit] |
| CCCCN(CCCC)S(=O)(=O)c1nc(C)c(Cl)c(C)c1C#N | inactive: -37.9% | – |
| CCc1ccc(S(=O)(=O)Nc2cc3c(cc2C)n(C)c(=O)n3C)cc1 | – | inconclusive: 50.1 µM [inhibitor, partial curve, poor fit] |
| CCN1CCN(C(c2cccc(OC)c2)c2c(O)cc(C)n(Cc3ccco3)c2=O)CC1 (stereo not drawn) | – | inconclusive: 56.2 µM [inhibitor, partial curve, poor fit] |
| Cc1ccccc1CN1CCN(C(=O)c2cccc3ccccc23)CC1 | – | active: 2.82 µM |
| CCc1ccc(NC(=O)C(=O)c2c(C)[nH]c3ccccc23)cc1 | – | inconclusive: 63.1 µM [inhibitor, partial curve, poor fit] |
| CN(C)c1nc(-c2cccnc2)nc2ccccc12 | – | inconclusive: 50.1 µM [inhibitor, partial curve, poor fit] |
| COCCNC(=O)[C@@H]1C[C@H](Oc2ccccc2)CN1C(=O)c1ccc(OC)cc1OC | inactive: 19.3% | – |
| CN1CCN(C)c2cnc(-c3ccc(C(=O)N(C)C)cc3)cc2C1 | inactive: 28.2% [at 176 µM] | – |
| Cc1ccc(N(CC(=O)N2CCC(C(N)=O)CC2)S(=O)(=O)c2ccc(Cl)cc2)cc1C | – | inconclusive: 31.6 µM [inhibitor, single point] |
| CC1=C(C#N)c2nc(N)c(C#N)c(C)c2/C1=C\c1ccc(-c2ccccc2C(=O)O)o1 | – | inconclusive: 28.2 µM [inhibitor, partial curve] |
| CCOc1ccc(NC(=O)CSc2oc(-c3ccco3)nc2S(=O)(=O)c2ccc(Cl)cc2)cc1 | – | inconclusive: 50.1 µM [inhibitor, partial curve, poor fit] |
| OCC1(CN2CCCC2)CCN(Cc2ccc(Cl)c(F)c2)CC1 | inactive: 32% | – |
| S=C(Nc1ccc(Br)cc1Cl)NC1CCN(Cc2ccccc2)CC1 | – | inconclusive: 50.1 µM [inhibitor, partial curve, poor fit] |
| COc1ccc(CCNC(=O)COC(=O)Cc2ccccc2F)cc1 | – | inconclusive: 44.7 µM [inhibitor, partial curve, poor fit] |
| CC(CCc1ccccc1)NC(=O)Cn1ncc2c3ccccc3n(Cc3cccc(Cl)c3)c2c1=O (stereo not drawn) | – | inconclusive: 44.7 µM [inhibitor, partial curve, poor fit] |
| CC1CC1C(=O)NCCC(=O)Nc1cccc(C#N)c1 (stereo not drawn) | – | inconclusive: 28.2 µM [inhibitor, single point] |

| Compound | activity change, negative = inhibition | Potency |
| --- | --- | --- |
| Cc1c(C)c2c(OCC(=O)NCC(=O)NCC(=O)O)cc3c(c2oc1=O)CCC(C)(C)O3 | inactive: -0.293% | – |
| CN(C)S(=O)(=O)Nc1ccccc1C(N)=O | – | inconclusive: 35.5 µM [inhibitor, single point] |
| CC(C)(C)c1cc(CNC2CS(=O)(=O)C[C@@H]2O)cc(C(C)(C)C)c1O (stereo partly drawn) | inactive: 0% | – |
| O=C(NC1CCCc2ccccc21)c1ncc(Cl)c(Cl)c1Cl (stereo not drawn) | – | inconclusive: 31.6 µM [inhibitor, partial curve, poor fit] |
| Cn1nnnc1Sc1ncnc2scc(-c3ccc(C#N)cc3)c12 | inactive: 0.713% | – |
| CC1CCN(S(=O)(=O)c2cc(C(=O)NCc3ccc(F)cc3)n(C)c2)CC1 | – | inconclusive: 63.1 µM [inhibitor, partial curve, poor fit] |
| CC(NCc1ccccc1O)C12CC3CC(CC(C3)C1)C2 (stereo not drawn) | inactive: -4.23% | – |
| Cc1ccc(/C=C2\CC(c3ccccc3)c3ccccc3C2=O)cc1 (stereo not drawn) | – | inconclusive: 35.5 µM [inhibitor, single point] |
| CC(C)Cn1c(CN2CCCC(C)C2)nc2c1c(=O)n(C)c(=O)n2C (stereo not drawn) | inactive: 53% | – |
| CCc1nnc(NS(=O)(=O)c2ccc(NC(=S)NC(=O)c3ccc(Br)cc3)cc2)s1 | – | active: 5.62 µM |
| CCCc1cc(C(=O)N2CCN(C(c3ccccc3)c3ccccc3)CC2)no1 | – | inconclusive: 112 µM [inhibitor, single point] |
| CCCCC1(C)NC(=O)c2c(C)sc(C(=O)OCC)c2N1 (stereo not drawn) | – | inconclusive: 112 µM [inhibitor, single point] |
| CC(C)n1c(=S)[nH]c2c1c(=O)[nH]c(=O)n2C | – | active: 5.01 µM |
| Clc1ccc(N/N=C/c2c(Cl)cccc2Cl)cc1Cl | – | inconclusive: 17.8 µM [inhibitor, partial curve, poor fit] |
| CC(=O)c1ccc(NC(=O)CCc2c(C)nn(-c3ccc4nncn4n3)c2C)cc1 | inactive: -24.5% | – |
| CC(=O)c1ccc(OC2(C)CCN(Cc3ccc(OC(F)(F)F)cc3)C2)cc1 (stereo not drawn) | – | inconclusive: 44.7 µM [inhibitor, partial curve, poor fit] |
| CC1(C)OC(=O)C(=Cc2ccc(-c3ccc(S(N)(=O)=O)cc3)o2)C(=O)O1 | – | inconclusive: 20 µM [inhibitor, partial curve, poor fit] |
| O=C(O)c1nn(-c2ccccc2)nc1-c1nn(-c2ccccc2)nc1C(=O)O | – | inconclusive: 39.8 µM [inhibitor, partial curve, poor fit] |
| O=C(Nc1ccc(SC(F)F)cc1)c1ccc(F)cc1 | inactive: 1.83% | – |
| CSc1ccc(CCNC(=O)c2cc3n(n2)CCCN(Cc2ccc(C)cc2)C3=O)cc1 | inactive: 4.16% | – |
| COc1ccc(C)cc1S(=O)(=O)N1CC(C)OC(C)C1 (stereo not drawn) | inactive: -24.5% | – |
| Cc1ccc(-c2nnn(CC(=O)N(Cc3ccco3)C(C(=O)NC(C)(C)C)c3ccc(C)o3)n2)o1 (stereo not drawn) | inactive: -6.79% | – |
| CN1C(=O)c2ccc(NC(=S)NC(=O)C(C)(C)C)cc2C1=O | – | inconclusive: 44.7 µM [inhibitor, partial curve, poor fit] |

In the list so far, 2 have bromine.

| Compound | activity change, negative = inhibition | Potency |
| --- | --- | --- |
| S=C(Nc1ccc(Br)cc1Cl)NC1CCN(Cc2ccccc2)CC1 | – | inconclusive: 50.1 µM [inhibitor, partial curve, poor fit] |
| CCc1nnc(NS(=O)(=O)c2ccc(NC(=S)NC(=O)c3ccc(Br)cc3)cc2)s1 | – | active: 5.62 µM |

Further entries follow:

| Compound | activity change, negative = inhibition | Potency |
| --- | --- | --- |
| CCN1CCc2c(sc3c2c(=O)n(-c2ccc(Cl)cc2)c(=O)n3CCN2CCCC2)C1 | – | inconclusive: 17.8 µM [inhibitor, partial curve, poor fit] |
| CN(C)CCCn1ccc2c(cnc3c(-c4ccc(Cl)cc4)cnn32)c1=O | inactive: -19.9% | – |
| O=C1/C(=C\c2ccc3ccccc3c2)CCCc2ccccc21 | – | inconclusive: 35.5 µM [inhibitor, single point] |
| O=C(CCCSc1nc(-c2ccco2)cc(C(F)(F)F)n1)Nc1ccc2c(c1)OCO2 | inactive: 56.4% | – |
| COCCn1cnnc1SCc1ccc(F)cc1Cl | inactive: 8.22% | – |
| Cc1c(NC(=S)N/N=C/c2cc([N+](=O)[O-])ccc2O)c(=O)n(-c2ccccc2)n1C | – | inconclusive: 44.7 µM [inhibitor, partial curve, poor fit] |
| Cc1ccc(NC(=O)CCS(=O)(=O)c2ccc3nc(C)sc3c2)cc1 | – | inactive |
| Cc1cccc(C)c1-n1c(C)cc(/C=C2\NC(=O)NC2=O)c1C | – | inconclusive: 141 µM [inhibitor, partial curve, poor fit] |
| CC(C)CN(CCNC(=O)CN1C(=O)COc2ccc(S(=O)(=O)N3CCC(C)CC3)cc21)CC(C)C | – | inconclusive: 3.98 µM [inhibitor, full curve, poor fit] |
| COCCCNCCCOc1ccc(Cl)cc1C(C)(C)C | – | inconclusive: 2.24 µM [inhibitor, full curve] |
| COc1cc(C(=S)N2CCOCC2)ccc1OS(=O)(=O)c1ccccc1[N+](=O)[O-] | inactive: -17% | – |
| COc1cccc(C2c3[nH]c4ccccc4c3C[C@H]3C(=O)N(C4CCN(Cc5ccccc5)CC4)CC(=O)N23)c1 (stereo partly drawn) | – | inconclusive: 89.1 µM [inhibitor, partial curve, poor fit] |
| Cc1cc(C)c(NC(=O)COC(=O)C2CCN(c3ccc(C(F)(F)F)cn3)CC2)c(Cl)c1 | – | inconclusive: 35.5 µM [inhibitor, single point] |
| O=C1NC(C2CC3C=CC2C3)Nc2ccccc21 (stereo not drawn) | – | inconclusive: 3.16 µM [inhibitor, full curve, poor fit] |
| Cc1cc(OCC(=O)OCC(=O)N(Cc2ccccc2)C(C)(C)C)ccc1Cl | – | inconclusive: 1.26 µM [inhibitor, full curve, poor fit] |
| O=C(CSc1ncnc2ccccc12)Nc1cccc(S(=O)(=O)N2CCOCC2)c1 | inactive: 0.809% | – |
| CCNC(=S)N/N=C(\C)c1cccc([N+](=O)[O-])c1 | – | inconclusive: 44.7 µM [inhibitor, partial curve, poor fit] |
| CCOc1ccc(S(=O)(=O)NCCc2sc(-c3ccc(C)cc3)nc2C)cc1 | inactive: 1.7% | – |
| O=C(CCc1ccccc1)n1nc(-c2ccccc2)nc1NCc1ccco1 | – | inconclusive: 3.98 µM [inhibitor, full curve, poor fit] |
| COc1ccc(C)cc1S(=O)(=O)NCC(c1ccc2c(c1)OCO2)N1CCN(C)CC1 (stereo not drawn) | – | inconclusive: 10 µM [inhibitor, partial curve, poor fit] |
| CCCCn1c(=O)n(CC(O)COc2ccc3ccccc3c2)c(=O)c2c1ncn2C1CCCC1 (stereo not drawn) | inactive: 0.167% | – |
| CCOc1ccc(/C(O)=C2/C(=O)C(=O)N(CCCN3CCOCC3)C2c2ccc(F)cc2)cc1C (stereo not drawn) | – | inconclusive: 50.1 µM [inhibitor, partial curve, poor fit] |

3 structures out of the list, arranged by molar mass, rising.

| Compound | activity change, negative = inhibition | Potency |
| --- | --- | --- |
| CN(C)c1nc(-c2cccnc2)nc2ccccc12 | – | inconclusive: 50.1 µM [inhibitor, partial curve, poor fit] |
| COc1ccc(CCNC(=O)COC(=O)Cc2ccccc2F)cc1 | – | inconclusive: 44.7 µM [inhibitor, partial curve, poor fit] |
| O=C(CSc1ncnc2ccccc12)Nc1cccc(S(=O)(=O)N2CCOCC2)c1 | inactive: 0.809% | – |
